HELM strings list residues between dots; [ac] is acetyl, [am] amide, other brackets name non-standard units.

The nature of this data set: peptide synthesis. The note with it: conjugation step.

“PEPTIDE1{A.D.D.Q.N.P.W.R.A.Y.L.D.L.L.F.P.T.D.T.L.L.L.D.L.L.W.C.G}|CHEM1{[Exa-OCO-THP-S]}$PEPTIDE1,CHEM1,27:R3-1:R1$$$V2.0”: the conjugation yield is 73.6%.
